Reference: the supplement of paper PMC10727501
The other results are listed elsewhere or left out. Single values are uncertain here, since repeats match poorly.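 Free-swimming zebrafish larvae were scored for O-bend response probability to dark flashes (naive: first five; training: remaining flashes of four 60-flash blocks; test: later 60-flash block) and for turning toward alternating leftward/rightward LED motion (OMR). Six treated larvae were compared with sixty 0.1% DMSO controls; |SSMD|≥2 defined a hit.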

How the values were obtained:
Details in all cases: 10 µM; pre-incubation: 30-90 min
[1] = system: Danio rerio larvae (5 dpf, TLF); assay: OMR-Perf (SSMD vs DMSO vehicle); higher = higher than vehicle (e.g. higher dark-flash O-bend response probability, or better optomotor performance)
[2] = system: Danio rerio larvae (5 dpf, TLF); assay: Prob-Test (SSMD vs DMSO vehicle); higher = higher than vehicle (e.g. higher dark-flash O-bend response probability, or better optomotor performance)
[3] = system: Danio rerio larvae (5 dpf, TLF); assay: Prob-Naive (SSMD vs DMSO vehicle); higher = higher than vehicle (e.g. higher dark-flash O-bend response probability, or better optomotor performance)
[4] = system: Danio rerio larvae (5 dpf, TLF); assay: Prob-Train (SSMD vs DMSO vehicle); higher = higher than vehicle (e.g. higher dark-flash O-bend response probability, or better optomotor performance)

Compound | OMR-Perf [1] | Prob-Test [2] | Prob-Naive [3] | Prob-Train [4]
Cc1ccc(Nc2nccc(N(C)c3ccc4c(C)n(C)nc4c3)n2)cc1S(N)(=O)=O [Pazopanib] | -0.231 | -0.0719 | 0.0457 | -0.148
C[C@]12C=CC(=O)C=C1CC[C@@H]1[C@H]2C(=O)C[C@@]2(C)[C@H]1CC[C@@]2(O)C(=O)CO [Prednisone] | 0.256 | 0.371 | 0.121 | -0.128
CC[C@H]1OC(=O)[C@H](C)[C@@H](O[C@@H]2C[C@@](C)(OC)[C@H](O)[C@@H](C)O2)[C@H](C)[C@@H](O[C@H]2OC(C)C[C@@H](N(C)C)[C@H]2O)[C@@](C)(O)C[C@@H](C)C(=O)[C@H](C)[C@@H](O)[C@]1(C)O (some centres undefined) [Erythromycin] | -0.139 | 0.272 | 0.549 | 0.532
CC(C(=O)[O-])c1cccc(Oc2ccccc2)c1.CC(C(=O)[O-])c1cccc(Oc2ccccc2)c1.[Ca+2] (centres undefined) [Fenoprofen Calcium] | -0.425 | -1.49 | -0.803 | -2.07
COc1cc2c(cc1NS(=O)(=O)c1ccc(Br)cc1C)n(C)c(=O)n2C | 0.186 | -0.463 | 0 | -0.686
CC(=O)NC[C@H]1CN(c2ccc(N3CCOCC3)c(F)c2)C(=O)O1 [Linezolid] | 0.408 | 0.441 | -0.341 | 0.198
CC(=O)N1CCN(c2ccc(OC[C@H]3CO[C@](Cn4ccnc4)(c4ccc(Cl)cc4Cl)O3)cc2)CC1 [Ketoconazole] | -0.316 | -0.309 | 0.0846 | -0.24
CC[C@]1(O)C[C@@H]2CN(CCc3c([nH]c4ccccc34)[C@@](C(=O)OC)(c3cc4c(cc3OC)N(C=O)[C@H]3[C@@](O)(C(=O)OC)[C@H](OC(C)=O)[C@]5(CC)C=CCN6CC[C@@]43[C@@H]65)C2)C1.O=S(=O)(O)O [Vincristine] | 0.178 | 0.692 | 0.214 | 0.081
Cc1cc2c(cc1CC(=O)c1sccc1S(=O)(=O)[N-]c1onc(C)c1Cl)OCO2.[Na+] [Sitaxentan sodium] | -0.511 | -0.11 | 0.0516 | -0.132
C[C@@H]1CN(c2c(F)c(N)c3c(=O)c(C(=O)O)cn(C4CC4)c3c2F)C[C@H](C)N1 [Sparfloxacin] | -0.423 | 0.26 | 0.493 | -0.0293
N#Cc1ccc2[nH]c(O)c(-c3ccc(CN4CCOCC4)cn3)c2c1 | 0.0942 | -0.482 | -0.607 | -0.422
Cc1cccc(-c2nc(C(C)(C)C)[nH]c2-c2ccc3nccnc3c2)n1 | 0.189 | -0.831 | -0.0954 | -0.494
NC(=O)Nc1cc(-c2cccc(F)c2)sc1C(=O)N[C@H]1CCCNC1 | 0.16 | 0.0672 | -0.297 | -0.404
CC(C)(S)[C@@H](N)C(=O)O [Penicillamine (Cuprimine)] | 0.751 | -0.087 | -0.142 | -0.211
CN1C[C@@H]2c3ccccc3Oc3ccc(Cl)cc3[C@H]2C1.O=C(O)/C=C\C(=O)O [Asenapine] | -0.913 | -2.31 | 0.499 | -1.46
Cl.O=c1n(CCCN2CCN(c3cccc(Cl)c3)CC2)nc2ccccn12 [Trazodone HCl] | -0.471 | -0.433 | 0.644 | 0.198
CCN(CC)CCOC(=O)c1ccc(N)cc1.Cl [Procaine HCl] | -0.474 | -0.39 | -0.479 | -0.417
Cn1cncc1[C@@](N)(c1ccc(Cl)cc1)c1ccc2c(c1)c(-c1cccc(Cl)c1)cc(=O)n2C [Tipifarnib] | -0.764 | -1.61 | 0.459 | -0.75
NC(CO)(CO)CO.O=C(c1ccccc1)c1ccc2n1CCC2C(=O)O (centres undefined) [Ketorolac] | 0.0685 | 0.172 | 0.312 | 0.432
O=C(N/N=C/c1ccc([N+](=O)[O-])o1)c1ccc(O)cc1 [Nifuroxazide] | 0.411 | 0.092 | 0.263 | 0.241
CC[C@H](C)C(=O)O[C@@H]1C[C@@H](C)C=C2C=C[C@H](C)[C@@H](CC[C@@H]3C[C@@H](O)CC(=O)O3)[C@H]21 [Lovastatin] | -0.587 | -1.7 | -0.383 | -1.26

2 consecutive entries from above, quoted:
Compound | OMR-Perf [1] | Prob-Test [2] | Prob-Naive [3] | Prob-Train [4]
CC(=O)N1CCN(c2ccc(OC[C@H]3CO[C@](Cn4ccnc4)(c4ccc(Cl)cc4Cl)O3)cc2)CC1 [Ketoconazole] | -0.316 | -0.309 | 0.0846 | -0.24
CC[C@]1(O)C[C@@H]2CN(CCc3c([nH]c4ccccc34)[C@@](C(=O)OC)(c3cc4c(cc3OC)N(C=O)[C@H]3[C@@](O)(C(=O)OC)[C@H](OC(C)=O)[C@]5(CC)C=CCN6CC[C@@]43[C@@H]65)C2)C1.O=S(=O)(O)O [Vincristine] | 0.178 | 0.692 | 0.214 | 0.081
